Source: PMC5309696
These are yes or no findings as the source states them, for the method shown. Binding seen in cells or lysates may run through a third protein. Some entries that bind do so weakly or less than the wild type.

Amino acid sequences for entries named in this document (tags omitted).
UniProt O08586: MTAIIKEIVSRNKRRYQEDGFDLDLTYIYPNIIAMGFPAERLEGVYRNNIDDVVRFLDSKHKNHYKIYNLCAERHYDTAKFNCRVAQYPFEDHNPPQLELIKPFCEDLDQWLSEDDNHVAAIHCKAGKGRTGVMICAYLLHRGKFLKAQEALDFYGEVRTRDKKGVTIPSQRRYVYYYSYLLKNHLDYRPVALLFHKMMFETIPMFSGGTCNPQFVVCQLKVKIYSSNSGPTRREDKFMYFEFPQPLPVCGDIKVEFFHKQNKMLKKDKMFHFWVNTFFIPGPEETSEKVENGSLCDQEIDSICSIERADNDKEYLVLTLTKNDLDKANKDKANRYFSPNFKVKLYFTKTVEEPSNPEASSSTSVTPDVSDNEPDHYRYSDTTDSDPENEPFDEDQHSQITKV

Target: T1, DJ-1 (endogenous, brown adipose tissue) (mouse (endogenous in BAT)) (UniProt Q99LX0)
T1 sequence: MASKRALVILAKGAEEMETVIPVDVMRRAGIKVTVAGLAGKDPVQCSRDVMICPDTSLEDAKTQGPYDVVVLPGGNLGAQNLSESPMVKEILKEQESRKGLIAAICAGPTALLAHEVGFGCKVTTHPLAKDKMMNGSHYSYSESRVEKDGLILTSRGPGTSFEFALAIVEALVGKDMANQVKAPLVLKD
Experiment: co-IP; lysates of BAT immunoprecipitated with DJ-1 antibody, immunoblotted with PTEN or Mib2 antibody; IP buffer 50 mM Hepes pH 7.9, 150 mM NaCl, 1% Triton-100, 4 °C

**Q.** Which binding does the source give for “PTEN (endogenous) (from UniProt O08586 1-403)” here?
**A.** The binding was “binds”.
